Values from PubChem BioAssay AID652272 (Drosophila RNAi Screening Center, 2013).
The deposit covers about 21,000 reagents; below is a random part of those with a known target gene and a result. In the full data, 503 (2.4%) were called active. 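Raw plate light values, not normalised; calls rest on replicate z-scores that were not deposited; hits include reporter decreases as well as increases.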 Unmarked entries are inactive. Reagents against one gene are numbered here. A plus sign joins genes that one reagent is predicted to hit. The record does not give: the amount of reagent, the time to read-out.

Test: 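Genes whose knock-down decreases or increases Hedgehog reporter output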 (primary screen)
Cells: Drosophila clone 8 (Cl8) cells
Knock-down reagent: long dsRNA against Drosophila genes
Detection: 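Firefly light from a Hedgehog-responsive ptc promoter reporter and Renilla reference light, both read on a plate reader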
Scale: firefly Hh reporter signal: higher = more ptc reporter light; Renilla reference signal: higher = more Renilla control light
Active means: 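Called a hit if the two-replicate mean z-score lies below -2 or above +3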
Meaning of the calls: active = hit: reporter lowered or raised; inactive = not a hit

| Gene | reagent no. | firefly Hh reporter signal, replicate 1 | firefly Hh reporter signal, replicate 2 | firefly Hh reporter signal, replicate 3 | Renilla reference signal, replicate 1 | Renilla reference signal, replicate 2 |
| --- | --- | --- | --- | --- | --- | --- |
| CG5235 | 1 | 1.38e5 | – | – | 6266 | 3915 |
| CG5937 | 1 | 58401 | 1.46e5 | – | 1524 | 5990 |
| NTPase | 1 | 52928 | 83628 | – | 2284 | 3163 |
| CG9444 | 1 | 74336 | 1.05e5 | – | 1852 | 2869 |
| Tace | 1 | 91217 | 86960 | – | 1559 | 2493 |
| Rbbp5 + CG6434 (retired record) | 1 | 1.10e5 | 1.27e5 | – | 3768 | 3418 |
| G9a | 1 | 82771 | 2.40e5 | – | 2059 | 9026 |
| Irk2 (Inwardly rectifying potassium channel 2) | 1 | 96613 | 91857 | – | 4899 | 4338 |
| mab-21 | 1 | 99094 | 2.63e5 | – | 2344 | 11328 |
| dally (division abnormally delayed) | 1 | 1.08e5 | 2.33e5 | – | 2969 | 9265 |
| dally (division abnormally delayed) | 2 | 69842 | 58802 | – | 2964 | 2359 |
| PIG-N (Phosphatidylinositol glycan anchor biosynthesis class N) | 1 | 53811 | 61778 | – | 1411 | 5464 |
| Boot (Bootlegger) | 1 | 83520 | 38093 | – | 2530 | 3926 |
| SmydA-6 (SET and MYND domain containing, arthropod-specific, member 6) | 1 | 82645 | 62448 | – | 2681 | 4496 |
| ck (crinkled) | 1 | 54609 | 74352 | – | 2744 | 3228 |
| CG14106 | 1 | 38000 | 41337 | 65873 | 4066 | 4709 |
| CG10680 | 1 | 77858 | 49984 | – | 2085 | 5193 |
| wdb (widerborst) | 1 | 42568 | 59901 | – | 1452 | 2464 |
| CG1523 | 1 | 96320 | 84595 | – | 1433 | 1952 |
| haf (hattifattener) | 1 | 92076 | 67021 | – | 2316 | 1840 |
| CG17217 | 1 | 1.38e5 | 94325 | – | 3459 | 7536 |
| CG9406 | 1 | 1.35e5 | 54726 | – | 2961 | 2392 |
| CG43124 | 1 | 59793 | 3.21e5 | – | 14616 | 7456 |
| CG5024 | 1 | 4.63e5 | 72853 | – | 25187 | 2236 |
| S-Lap5 (Sperm-Leucylaminopeptidase 5) | 1 | 76924 | 69937 | – | 1901 | 5291 |

Sorted by “Renilla reference signal, replicate 2” (highest first): some entries from above
| Gene | reagent no. | firefly Hh reporter signal, replicate 1 | firefly Hh reporter signal, replicate 2 | firefly Hh reporter signal, replicate 3 | Renilla reference signal, replicate 1 | Renilla reference signal, replicate 2 |
| --- | --- | --- | --- | --- | --- | --- |
| CG10680 | 1 | 77858 | 49984 | – | 2085 | 5193 |
| wdb (widerborst) | 1 | 42568 | 59901 | – | 1452 | 2464 |
| CG1523 | 1 | 96320 | 84595 | – | 1433 | 1952 |

Next entries follow.
| Gene | reagent no. | firefly Hh reporter signal, replicate 1 | firefly Hh reporter signal, replicate 2 | firefly Hh reporter signal, replicate 3 | Renilla reference signal, replicate 1 | Renilla reference signal, replicate 2 |
| --- | --- | --- | --- | --- | --- | --- |
| r2d2 | 1 | 1.21e5 | 54661 | – | 3088 | 6068 |
| mud (mushroom body defect) | 1 | 7.87e5 | 6.25e5 | 3.14e5 | 46002 | 5397 |
| pck (pickel) | 1 | 85115 | 74621 | – | 1690 | 1964 |
| trp (transient receptor potential) | 1 | 88240 | 1.02e5 | – | 3413 | 3051 |
| CG8407 | 1 | 1.24e5 | 42822 | – | 2724 | 3964 |
| CG15345 (retired record) | 1 | 1.34e5 | 7.65e5 | 3.96e5 | 4700 | 5035 |
| CG12920 | 1 | 63297 | 51389 | – | 1600 | 3857 |
| CG15036 | 1 | 74592 | 1.71e5 | – | 2658 | 7387 |
| CG8641 | 1 | 75520 | 77991 | – | 7882 | 5165 |
| Tmem43 (Transmembrane protein 43) | 1 | 23211 | 54688 | – | 4752 | 4880 |
| Cyp6a23 (Cytochrome P450 6a23) | 1 | 1.12e5 | 68617 | – | 2976 | 5332 |
| CG6761 | 1 | 90421 | 77196 | – | 3920 | 3300 |
| CG9682 | 1 | 1.15e5 | 99318 | – | 2595 | 2635 |
| Papss (PAPS synthetase) | 1 | 53602 | 93752 | – | 2443 | 3724 |
| CNMa (CNMamide) | 1 | 62700 (active) | 27741 | – | 2760 | 4266 |
| Rca1 (Regulator of cyclin A1) | 1 | 34332 | 51847 | – | 2225 | 1825 |
| CG3630 | 1 | 1.26e5 | 78100 | – | 2901 | 2459 |
| Zasp67 (Z band alternatively spliced PDZ-motif protein 67) | 1 | 46295 | 65730 | 76379 | 6054 | 4976 |
| CG5404 | 1 | 2.42e5 | 1.07e5 | – | 8951 | 1426 |
| IntS9 (Integrator 9) | 1 | 73216 | 47521 | – | 2528 | 1652 |
| CG12716 | 1 | 90916 | 3.16e5 | – | 2185 | 12473 |
| CG12880 | 1 | 88887 | 73349 | – | 1981 | 1760 |
| CG14322 | 1 | 5.16e5 | 1.18e5 | – | 25284 | 3225 |
| YME1L (YME1 like ATPase) | 1 | 1.03e5 | 39280 | – | 4013 | 1545 |
| CG14282 | 1 | 5.22e5 | 69328 | – | 26129 | 1563 |
| CG14879 | 1 | 1.11e5 | 1.26e5 | – | 2384 | 3481 |
| yellow-f2 | 1 | 1.56e5 | 1.32e5 | – | 5069 | 5530 |
| Kdm3 (Lysine demethylase 3) | 1 | 34672 | 98784 | – | 1402 | 2965 |
| Skel (Skeletor) | 1 | 56211 | 1.03e5 | – | 1932 | 2784 |
| Skel (Skeletor) | 2 | 85715 | 58376 | – | 3717 | 2549 |
| Src42A (Src oncogene at 42A) | 1 | 64724 | 74451 | – | 2448 | 2820 |
| Src42A (Src oncogene at 42A) | 2 | 81610 | 66147 | – | 1553 | 5548 |
